Test results reported in paper PMC8700327.
Results are given in words; binding and its absence hold for the method and conditions named. In cells and extracts the contact can be indirect. Some binding calls cover weakened binding; strength is not graded here.

Sequences of proteins named here, by UniProt entry; tags and fusion partners are left off.
UniProt Q86YP4: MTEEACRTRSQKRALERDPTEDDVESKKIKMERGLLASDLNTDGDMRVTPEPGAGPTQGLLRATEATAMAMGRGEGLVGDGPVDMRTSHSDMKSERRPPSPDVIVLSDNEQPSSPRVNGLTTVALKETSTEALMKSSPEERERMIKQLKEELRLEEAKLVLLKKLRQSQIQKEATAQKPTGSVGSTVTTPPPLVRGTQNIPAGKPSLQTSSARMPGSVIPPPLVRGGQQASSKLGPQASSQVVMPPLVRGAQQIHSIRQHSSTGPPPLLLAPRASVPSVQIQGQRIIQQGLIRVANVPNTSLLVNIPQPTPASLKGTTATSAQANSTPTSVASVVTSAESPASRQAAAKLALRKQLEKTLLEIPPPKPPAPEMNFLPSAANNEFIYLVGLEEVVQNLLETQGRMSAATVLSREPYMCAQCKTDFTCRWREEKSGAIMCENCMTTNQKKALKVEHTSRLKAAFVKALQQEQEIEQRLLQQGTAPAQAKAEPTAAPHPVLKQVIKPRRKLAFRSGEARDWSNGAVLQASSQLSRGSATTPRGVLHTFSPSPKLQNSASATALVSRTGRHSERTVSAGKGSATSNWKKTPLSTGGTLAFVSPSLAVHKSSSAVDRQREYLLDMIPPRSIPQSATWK

How the values were obtained:
[1] = target: Flag-p66α (GATA zinc finger domain-containing protein 2A) (UniProt Q86YP4); test: co-IP; tagged proteins transiently co-expressed in HEK-293T cells; lysis in 20 mM Tris pH 7.5, 150 mM NaCl, 2.5 mM EDTA, DTT; Flag M2 beads; Western blot for the other tag
[2] = target: Flag-p66α (GATA zinc finger domain-containing protein 2A) (UniProt Q86YP4); test: co-IP; whole-cell lysate of HEK-293T-Flag-p66α cells; precipitated with antibody against p66α or Flag M2 beads; Western blot with monoclonal anti-p53 antibody for endogenous p53

GFP-p53 (from UniProt P04637 1-393) was tested, and the binding [1] was “binds”.
With “endogenous p53 (from UniProt P04637 1-393)” the binding [2] was “binds”.
